# Taken from: PubChem BioAssay AID652243 (Drosophila RNAi Screening Center, 2013)
# Assay: 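Fly regulators of androgen-dependent reporter output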 (primary screen)
# System: Drosophila S2R+ cells
# Reagent: long dsRNA against Drosophila genes
# Duration: 72 h (48 h, then 24 h hormone)
# Treatment: synthetic androgen R1881 at 10 nM for 24 h
# Measurement: 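Firefly light from an androgen-responsive reporter and Renilla control light per well, raw and unnormalised, for each of two replicates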
# Scale: firefly reporter light: higher = more light from androgen-responsive reporter; Renilla control light: higher = more constitutive control signal (cell number, transfection)
# Hit rule: 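Across duplicate plates, a knock-down whose log firefly/Renilla ratio shifted a set fold down or up from the GFP/LacZ control mean was a hit; the downward cut appears as both 1.5 and 3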
# Calls: active = hit: reporter lowered or raised; inactive = no hit
# The deposit covers about 24,000 reagents; below is a random part of those with a known target gene and a result. In the full data, 246 (1%) are marked active. 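Plates not normalised; calls are printed but the firefly/Renilla ratio behind them is not deposited; fold cut for lowering reported inconsistently.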 Raw values vary from plate to plate and are shown uncorrected. Unmarked entries are inactive. The numbers tell different reagents against one gene apart. A plus sign joins genes that one reagent is predicted to hit. Reagent sequences are not shown. Not stated in the record: the amount of reagent.
target gene,dsRNA no.,"firefly reporter light, replicate 1","firefly reporter light, replicate 2","Renilla control light, replicate 1","Renilla control light, replicate 2"
CG8861,1,1.18e5,1.16e5,2.12e5,2.62e5
CG8861,2,1.41e5,1.83e5,2.58e6,2.80e6
CG34049,1,7.52e5,6.79e5,2.20e6,1.92e6
CG31031 (retired record),1,1.08e6,8.82e5,1.57e6,1.10e6
Rip11 (Rab11 interacting protein),1,1.08e5,1.28e5,5.42e5,6.94e5
Rip11 (Rab11 interacting protein),2,5.11e5,4.19e5,1.25e6,1.20e6
Tim10 + CG42497,1,1.17e6,8.20e5,2.66e6,3.01e6
Neurochondrin,1,1.34e5,42141,4.35e5,3.53e5
Neurochondrin,2,1.98e5,2.59e5,5.83e5,6.65e5
Alms1b + Alms1a,1,87222,1.28e5,6.85e5,9.47e5
Alms1b + Alms1a,2,2.97e5,2.71e5,7.24e5,9.08e5
CG34106,1,5.85e5,5.47e5,1.95e6,1.63e6
CG17221,1,1.31e5,1.03e5,6.88e5,8.43e5
CG17221,2,2.39e5,2.59e5,6.33e5,8.26e5
CG14564,1,2.13e5,2.03e5,1.96e6,2.39e6
CG14564,2,4.95e5,8.45e5,1.28e6,1.51e6
RhoU,1,2.44e5,2.58e5,2.70e6,3.23e6
RhoU,2,5.70e5,7.03e5,1.60e6,1.28e6
RhoU,3,1.04e6,6.08e5,3.27e6,1.57e6
RhoU,4,5.59e5,9.11e5,8.58e5,1.75e6
RhoU,5,6.61e5,1.00e6,7.24e5,1.22e6
RhoU,6,2.78e5,6.42e5,8.91e5,1.13e6
Cyp9f3 (Cytochrome P450 9f3),1,2.21e5,1.82e5,2.03e6,2.46e6
Cyp9f3 (Cytochrome P450 9f3),2,8.85e5,6.26e5,1.03e6,1.05e6
EndoG (Endonuclease G),1,4.39e5,3.68e5,4.05e6,3.59e6
EndoG (Endonuclease G),2,6.94e5,8.05e5,1.19e6,1.22e6
EndoG (Endonuclease G),3,2.58e5,4.46e5,6.26e5,6.02e5
Flad1 (Flavin adenine dinucleotide synthetase 1),1,1.32e5,1.65e5,7.86e5,8.79e5
Hao + Pex6,1,1.02e6,5.09e5,9.82e5,7.08e5
Hao + Pex6,2,2.76e5,2.03e5,1.36e6,1.05e6
mRpL46 (mitochondrial ribosomal protein L46),1,58267,51914,6.85e5,5.45e5
S-Lap8 (Sperm-Leucylaminopeptidase 8),1,4.47e5,5.59e5,2.44e6,2.50e6
S-Lap8 (Sperm-Leucylaminopeptidase 8),2,6.27e5,6.78e5,2.22e6,2.87e6
S-Lap8 (Sperm-Leucylaminopeptidase 8),3,2.61e5,3.14e5,7.18e5,7.18e5
CG5327,1,91518,1.96e5,2.11e6,2.18e6
CPT2 (Carnitine palmitoyltransferase 2),1,7.44e5,8.19e5,6.67e5,7.85e5
CG1824,1,4.72e5,4.26e5,2.68e6,3.66e6
ACXD (Adenylyl cyclase X D),1,40559,48304,8.67e5,8.62e5
ACXD (Adenylyl cyclase X D),2,5.93e5,5.73e5,7.55e5,8.99e5
CG33340,1,1.54e5,1.96e5,1.65e6,1.24e6
CG33340,2,4.41e5,5.07e5,5.41e5,5.33e5
MFS18 (Major Facilitator Superfamily Transporter 18),1,1.08e6,1.40e6,2.37e6,2.33e6
CG30432,1,2.62e5,3.41e5,6.30e5,6.98e5
alpha-Man-Ia (alpha-Mannosidase class I a),1,80820 (active),1.64e5,2.35e5,4.92e5
alpha-Man-Ia (alpha-Mannosidase class I a),2,2.77e5,3.20e5,3.34e6,2.79e6
alpha-Man-Ia (alpha-Mannosidase class I a),3,1.36e5,1.27e5,2.34e6,2.53e6
alpha-Man-Ia (alpha-Mannosidase class I a),4,1.50e5,1.52e5,1.75e6,1.55e6
alpha-Man-Ia (alpha-Mannosidase class I a),5,7.31e5,1.01e6,1.42e6,2.43e6
Mst84Dc (Male-specific RNA 84Dc),1,1.35e5,1.25e5,1.79e6,2.02e6
galene,1,51340,83667,7.96e5,8.31e5
galene,2,1.40e5,2.18e5,2.89e6,2.26e6
CG6685,1,3.15e5,2.50e5,2.56e6,1.31e6
Pdha (Pyruvate dehydrogenase E1 alpha subunit),1,1.96e5,2.31e5,2.36e6,1.54e6
Pdha (Pyruvate dehydrogenase E1 alpha subunit),2,2.78e5,2.31e5,7.08e5,6.37e5
PGRP-SC1a (Peptidoglycan recognition protein SC1a),1,4.30e5,2.47e5,2.52e6,1.42e6
CG2694,1,1.11e5,97852,1.06e6,6.32e5
Muc30E (Mucin 30E),1,4.18e5,4.03e5,2.11e6,2.43e6
Muc30E (Mucin 30E),2,4.32e5,6.70e5,1.07e6,1.12e6

Targets listed so far whose gene name begins with P or p:
target gene,dsRNA no.,"firefly reporter light, replicate 1","firefly reporter light, replicate 2","Renilla control light, replicate 1","Renilla control light, replicate 2"
Pdha (Pyruvate dehydrogenase E1 alpha subunit),1,1.96e5,2.31e5,2.36e6,1.54e6
Pdha (Pyruvate dehydrogenase E1 alpha subunit),2,2.78e5,2.31e5,7.08e5,6.37e5
PGRP-SC1a (Peptidoglycan recognition protein SC1a),1,4.30e5,2.47e5,2.52e6,1.42e6
